No constants are given. Whether binding was seen depends on the method and setting. In cells and extracts the contact can be indirect.
Target: interferon regulatory factor 5 (IRF5) (human (endogenous in THP-1 and Ramos)) (UniProt Q13568)
Experiment: co-IP

Amino acid sequences for entries named in this document (tags omitted).
UniProt Q13568: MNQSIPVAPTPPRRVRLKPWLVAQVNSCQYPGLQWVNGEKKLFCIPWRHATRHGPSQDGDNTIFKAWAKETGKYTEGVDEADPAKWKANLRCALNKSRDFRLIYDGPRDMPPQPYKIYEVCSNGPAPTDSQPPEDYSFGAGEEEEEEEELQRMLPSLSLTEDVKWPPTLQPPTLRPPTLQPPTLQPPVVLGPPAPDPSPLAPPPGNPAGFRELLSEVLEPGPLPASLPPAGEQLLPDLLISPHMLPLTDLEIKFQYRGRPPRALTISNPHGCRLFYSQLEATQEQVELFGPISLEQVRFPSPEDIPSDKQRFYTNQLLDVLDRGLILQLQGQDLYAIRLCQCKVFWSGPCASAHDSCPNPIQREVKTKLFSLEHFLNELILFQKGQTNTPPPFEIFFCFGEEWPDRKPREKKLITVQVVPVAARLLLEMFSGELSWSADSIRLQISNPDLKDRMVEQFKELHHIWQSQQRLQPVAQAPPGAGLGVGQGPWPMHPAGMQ
UniProt O00506: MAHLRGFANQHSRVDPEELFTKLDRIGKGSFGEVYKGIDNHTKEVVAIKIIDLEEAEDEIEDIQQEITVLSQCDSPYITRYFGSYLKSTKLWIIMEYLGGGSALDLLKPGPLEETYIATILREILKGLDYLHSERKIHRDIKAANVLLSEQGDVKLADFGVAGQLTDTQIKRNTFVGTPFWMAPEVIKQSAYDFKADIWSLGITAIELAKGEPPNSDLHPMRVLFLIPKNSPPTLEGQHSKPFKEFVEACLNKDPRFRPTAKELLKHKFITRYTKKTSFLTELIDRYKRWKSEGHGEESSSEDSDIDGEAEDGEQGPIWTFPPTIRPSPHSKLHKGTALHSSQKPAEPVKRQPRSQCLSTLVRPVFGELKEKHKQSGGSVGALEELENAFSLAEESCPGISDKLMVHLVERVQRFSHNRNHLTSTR

- binding: no binding
Substance: serine/threonine protein kinase 25 (STK25) (from UniProt O00506 1-426) (enzyme)
